This is an account of results in PMC7819943, “Rice protein-binding microarrays: a tool to detect cis-acting elements near promoter regions in rice”.

Amino acid sequences for entries named in this document (tags omitted).
UniProt Q0JBA9, entry or part of it: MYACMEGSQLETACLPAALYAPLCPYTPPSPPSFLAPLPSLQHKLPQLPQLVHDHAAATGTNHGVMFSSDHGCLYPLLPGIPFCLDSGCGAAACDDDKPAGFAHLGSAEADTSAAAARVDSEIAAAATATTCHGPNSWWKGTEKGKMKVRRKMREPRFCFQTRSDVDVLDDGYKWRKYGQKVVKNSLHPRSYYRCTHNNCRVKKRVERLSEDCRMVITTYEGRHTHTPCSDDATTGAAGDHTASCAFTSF

Some of the results follow.

The target in the assay is OsWRKY34 (Oryza sativa, UniProt Q0JBA9 1-250). Kind of assay: protein-binding microarray (RPBM); PBS, 2% BSA, 51.3 ng/ul salmon testes DNA, 50 uM zinc acetate, 200 nM TF, 25 C, 1 h; high values mean tight binding. As to conditions: protein: recombinant; tags: N-terminal polyhistidine and DsRed monomer fusion (pET32a); label: CyDye5-dUTP incorporated in the synthesized complementary strand; 3' TTTTT single-stranded linker to array surface; dsDNA, one strand shown. An outline of the steps: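 Binding signal is reported as fluorescence intensity per feature (arbitrary units) from an Axon 4000B scanner. Incubation used 200 nM of each Ni–NTA-purified, N-terminally polyhistidine- and DsRed-fused transcription factor from E. coli BL21-CodonPlus on a double-stranded custom Agilent array for 1 h at 25 °C, with 50 µM zinc acetate in the buffer, followed by washing.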
For the sequence “CTAATCTTTCATCCACTAACGCTGGCTGCCGCTAATCTACCGGAGTCACCTAGTGCAG”, the binding signal is 8300 fluorescence intensity (a.u.).
With “TGTGTGAGCTTTAGGGTGTGTTTGGATGGAGGGTTTTGGGCGGAGTCACCTAGTGCAG”, the binding signal was 10100 fluorescence intensity (a.u.).
In the case of “ACTCCCTCTATTTCAGGTTATACGATGTTTTAACTTTGGTCGGAGTCACCTAGTGCAG”, the binding signal is 9630 fluorescence intensity (a.u.).
For “CGCCGCAATTCCGCAAACACTTGCACCGTCGTTTATCCCTCGGAGTCACCTAGTGCAG”, the binding signal is 8060 fluorescence intensity (a.u.).
With “TTTTTCCTGTTATCATAGAGGTGTTGCATATACTTGTTCCCGGAGTCACCTAGTGCAG”, the binding signal was 8180 fluorescence intensity (a.u.).
The same measure for “GCCGGCCTGCCGCTGGCGGTCTGGCGCTGGGGAGGGGATGCGGAGTCACCTAGTGCAG”: 9940 fluorescence intensity (a.u.).
With “TTTTTCTTTTCTTTTTTGCTTTTGAATTGTGGGGTTGTAACGGAGTCACCTAGTGCAG”, the binding signal was 8790 fluorescence intensity (a.u.).
In the case of “TCTGGACCGCACCTTCCAAATCCACGGCTAAAATCTCCATCGGAGTCACCTAGTGCAG”, the binding signal is 8450 fluorescence intensity (a.u.).
The same measure for “CTCGCCGCGCGTCGCCTGCCTCGCTCCCACCGTTTCCGTCCGGAGTCACCTAGTGCAG”: 8670 fluorescence intensity (a.u.); for “TACATTGTTAGTACTGTTTGGTGTAACTATTTTTTTATAACGGAGTCACCTAGTGCAG”: 8180 fluorescence intensity (a.u.).
As for “GACCAACCCCAAAACATGCGCCATTTCCTTATGTTATCCTCGGAGTCACCTAGTGCAG”, the binding signal was 11400 fluorescence intensity (a.u.).
In the case of “ACGCCGCTCCACACCTCTCGTTTTCACTGCTTGCTGCGAGCGGAGTCACCTAGTGCAG”, the binding signal was 12400 fluorescence intensity (a.u.).
Consider “CCGCCTCCTCCCACGCGCCCATCGCCCACCACCTCCTCACCGGAGTCACCTAGTGCAG”, for which the binding signal was 9160 fluorescence intensity (a.u.).
Next, “TTGCATCTCTCTCTCTCTCTCTCTCTCTCTCTCTCTCTCTCGGAGTCACCTAGTGCAG”: 10900 fluorescence intensity (a.u.); “ATCCGTCCATACACCGTCACAACAGTTGAATATATACTTCCGGAGTCACCTAGTGCAG”: 8300 fluorescence intensity (a.u.); “CATCGTATCGATCCCCATTCGCGCCGTCCTCTTCTTCTTCCGGAGTCACCTAGTGCAG”: 10200 fluorescence intensity (a.u.).
As to “CCCATGCTGCATTATTTGCGACTCCCATCCCGTCCTCCACCGGAGTCACCTAGTGCAG”, the binding signal was 9240 fluorescence intensity (a.u.).
Consider “CTTCACCTCCTCATACCTCGAGCAAGCCATTGATACTGCCCGGAGTCACCTAGTGCAG”, for which the binding signal was 8240 fluorescence intensity (a.u.).
In the case of “TTAAATACTCTCTCCGTCCCAATCACCGAGCCTATATAATCGGAGTCACCTAGTGCAG”, the binding signal is 8490 fluorescence intensity (a.u.).
As to “ACACAACTCTCTCTCTCTCTCTCTCTCTCTCTCTCTCGTCCGGAGTCACCTAGTGCAG”, the binding signal is 8230 fluorescence intensity (a.u.).
Take “AAACGCAACCCATTTTTCATTCATTTCCCTTTTTTATTAGCGGAGTCACCTAGTGCAG”: the binding signal was 8720 fluorescence intensity (a.u.).
Consider “AAACCCTATTGCTCCCAGCGTCTTTCCTATTTCGGTAATTCGGAGTCACCTAGTGCAG”, for which the binding signal was 11500 fluorescence intensity (a.u.).
As for “ACGACCTCGATCGTCCCGTGTCGTCCAACGCAACGCATGCCGGAGTCACCTAGTGCAG”, the binding signal is 8870 fluorescence intensity (a.u.).
Consider “AAACTCATTTAATCGTGTCTCTATCCCTCTGTCTCGTTCGCGGAGTCACCTAGTGCAG”, for which the binding signal was 9860 fluorescence intensity (a.u.).
“ACACTCCACCGTAGCTCGGTCATCCTTAGTCGCACACCGACGGAGTCACCTAGTGCAG”: the binding signal is 10600 fluorescence intensity (a.u.).
As for “GAGGGGTCGGCTCATGCTTTTCACACACTAATTCTCTCGCCGGAGTCACCTAGTGCAG”, the binding signal was 12200 fluorescence intensity (a.u.).
Take “GAGGCGGAGATGGGCACGCATGGAGGCGGCGGCGGTGGGGCGGAGTCACCTAGTGCAG”: the binding signal was 9880 fluorescence intensity (a.u.).
As for “GTGACTTTTCTCACTAGAGTCCCTGTGTTCCCATAATTTTCGGAGTCACCTAGTGCAG”, the binding signal was 11300 fluorescence intensity (a.u.).
The same measure for “TTTTCAGTTTATTTTGTTCTTTTTGTTGCAACTCGCAAAACGGAGTCACCTAGTGCAG”: 8910 fluorescence intensity (a.u.); for “GCCCGCCATCAGCTAAGCATCCATCCATGTTCTATATAGACGGAGTCACCTAGTGCAG”: 8180 fluorescence intensity (a.u.); for “GTTGTTTTCTTCCTTTAGGTGATCCATCTTCTTTGTAACACGGAGTCACCTAGTGCAG”: 8440 fluorescence intensity (a.u.).
Turning to “TTTCGGGCTGCTTCGGGCTCGCGCGGGTGGTGGGAGGAAGCGGAGTCACCTAGTGCAG”, the binding signal is 9100 fluorescence intensity (a.u.).
On to “GACAAGTTGAGGGACCTTCAGTGTACTTTTTCCTTTTTCTCGGAGTCACCTAGTGCAG”, for which the binding signal was 8580 fluorescence intensity (a.u.).
Take “ACACTCTTTAACTCTGTATATGTGTTATCTGATGGCTGATCGGAGTCACCTAGTGCAG”: the binding signal was 8440 fluorescence intensity (a.u.).
The same measure for “ACCTCGTCGGTTCTCAGCCGTTGTCCTCTGCCGCGAGATCCGGAGTCACCTAGTGCAG”: 9730 fluorescence intensity (a.u.); for “GTCCATTAGCGTCACCCAGTCTAAATCTACATTGCAAATACGGAGTCACCTAGTGCAG”: 9910 fluorescence intensity (a.u.); for “GTCGTTGTCGGAGCCAGGTAATATTTTTGTAGGGTATTGACGGAGTCACCTAGTGCAG”: 9380 fluorescence intensity (a.u.).
As for “CGTCCGTACCAAGATCCAACGGCCCAGATCTCTCTCTCCTCGGAGTCACCTAGTGCAG”, the binding signal is 8580 fluorescence intensity (a.u.).
Next, “TTATTATCGCCATATATGTATGTCACATCATTTTTTTTAACGGAGTCACCTAGTGCAG”: 8240 fluorescence intensity (a.u.).
As to “CACCATATCATCGGTCGCACACCATCGCCGCGTGACCGAACGGAGTCACCTAGTGCAG”, the binding signal was 9670 fluorescence intensity (a.u.).
Consider “TCCGTCGCCTCCGGCCACCACTCCGCCGCCAACTCTTACCCGGAGTCACCTAGTGCAG”, for which the binding signal is 9410 fluorescence intensity (a.u.).
With “GATGGATGGTCTGCCTAATTTCAATTTGTCTCCCAAACTACGGAGTCACCTAGTGCAG”, the binding signal was 9530 fluorescence intensity (a.u.).
In the case of “TTACGTTGCACCTATCGCTTCTCTGCAACTTGACACAATACGGAGTCACCTAGTGCAG”, the binding signal was 9200 fluorescence intensity (a.u.).
Next, “TTTGTGGGTGATGGTGGGTGGGAGTGGGATAGGGCGGCCCCGGAGTCACCTAGTGCAG”: 17000 fluorescence intensity (a.u.).
For the sequence “TTGGTCTCGGAATATGATTTCTTTGTTTGTTCCATGTATACGGAGTCACCTAGTGCAG”, the binding signal is 8840 fluorescence intensity (a.u.).
Consider “TCTCTTTCCTCATTTATTCACTTGCCACATCATTTTTCATCGGAGTCACCTAGTGCAG”, for which the binding signal is 8440 fluorescence intensity (a.u.).
Next, “GTTGTGGTAAATATGTGATGTCGTCTTTTAAAAAAAGATACGGAGTCACCTAGTGCAG”: 8650 fluorescence intensity (a.u.); “CGAGCTTCGGTTCATCTCTGTCGCCAAATCCTAGTGTGTCCGGAGTCACCTAGTGCAG”: 9390 fluorescence intensity (a.u.).
On to “GTCCGCAAGTCTCGTGCTCTCACTCTCCACCTTCTTCTTCCGGAGTCACCTAGTGCAG”, for which the binding signal was 9970 fluorescence intensity (a.u.).
With “ACTTTCCTACACACAAACTTTCAACTTTTTCATCACATCGCGGAGTCACCTAGTGCAG”, the binding signal was 8900 fluorescence intensity (a.u.).
As to “GTCGGCTGGTTTTTTTTGTTTAGGTCGCCCCTGTAACTGACGGAGTCACCTAGTGCAG”, the binding signal was 11900 fluorescence intensity (a.u.).
With “ATTGGTTTAGTCACAGCTGATGCTGGTCGCACGGCTTTCACGGAGTCACCTAGTGCAG”, the binding signal is 8190 fluorescence intensity (a.u.).
As for “CGCGCGTGTGATTGGCTGGCTTGGTCAGGGTCAACGTTGGCGGAGTCACCTAGTGCAG”, the binding signal is 8310 fluorescence intensity (a.u.).
Take “ATTTTTTTTCAGCCACTTACACAGTAGTTACACCTCATTTCGGAGTCACCTAGTGCAG”: the binding signal was 10400 fluorescence intensity (a.u.).
